# Results: PubChem BioAssay AID2685 (National Center for Advancing Translational Sciences (NCATS), 2010)
# The list shows a part of the results. Further columns of the screen follow, without active or inactive calls. Compounds called inactive in the main read-out are mostly missing here. The note in brackets gives the kind of curve behind each potency; many fits are weak.
# Experiment: qHTS Assay for Lipid Storage Modulators in Drosophila S3 Cells;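 as to cell number change: cells counted by Cell Tracker Red CMTPX staining in the red channel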
# Conditions: BODIPY lipid droplet fluorescence, 18-24 h; for cell number change: measured here: cell count max response, cells fed with added oleic acid
# Procedure, shortened: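 Drosophila S3 cells loaded with oleic acid (400 uM, as added) and compounds at several concentrations; lipid droplets imaged by 488-nm laser-scanning cytometry, 500–530 nm intensity and object ratio to cell channel. Percent activity normalized to 20 uM Triacsin C.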
# [1] = measured here: lipid fluorescence (Fed channel) AC50, cells fed with added oleic acid
# [2] = measured here: cell number channel AC50, cells fed with added oleic acid
compound,measurement,setting,value
COc1ccc(C[C@H]2CN3C(=NC[C@H]3Cc3ccccc3)N2CCNC(=O)CCC2CCCCC2)cc1,cell number change,,-26.6%
same,AC50,[1],"29.1 µM [falling, single point]"
COc1ccc(OC)c(C2CC(=O)OC3=C2C(=O)CC(C)(C)C3)c1 (configuration not stated),cell number change,,49.6%
Cc1cc(C)c(OCC(=O)OC(C)C(=O)N2CCc3ccccc32)c(C)c1 (configuration not stated),cell number change,,-6.48%
same,AC50,[1],"0.00461 µM [rising, full curve, poor fit]"
CCc1noc(C)c1C(=O)N1CCN(S(=O)(=O)c2cccs2)CC1,cell number change,,0.427%
COc1cccc(N2CCCn3c2nc2c3c(=O)n(CCN3CCOCC3)c(=O)n2C)c1,cell number change,,11.4%
CC(OC(=O)C1CSC2(C)CCC(=O)N12)C(=O)Nc1ccc(F)cc1 (configuration not stated),cell number change,,-1.87%
same,AC50,[1],"2.31 µM [falling, full curve]"
O=C(C[n+]1ccncc1)c1ccccc1,cell number change,,9.12%
CC(C)(C)c1ccc(S(=O)(=O)N2CCN(CCC#N)CC2)cc1,cell number change,,2.2%
same,AC50,[1],"18.4 µM [falling, partial curve]"
CCOC(=O)c1c(C)nc2sc3c(=O)n(-c4ccc(C(C)=O)cc4)cnc3c2c1-c1ccc(OC)cc1,cell number change,,-5.8%
same,AC50,[1],"23.1 µM [falling, partial curve]"
CCSc1nc(O)c(C(c2cccc(OC)c2)c2c(O)nc(SCC)[nH]c2=O)c(=O)[nH]1,cell number change,,30.3%
same,AC50,[2],"29.1 µM [rising, partial curve, poor fit]"
CCn1cc(S(=O)(=O)NCc2ccc3c(c2)OCO3)cn1,AC50,[1],"0.82 µM [falling, single point]"
O=C(COc1ccc(/C=N/NC(=O)c2ccccc2Br)cc1)Nc1ccccc1,AC50,[1],"16.4 µM [falling, partial curve]"
Cc1nnc2c(N3CCN(CCO)CC3)nc3ccccc3n12,cell number change,,-13.4%
same,AC50,[1],"0.651 µM [falling, full curve, poor fit]"
COc1cccc(NC(=O)Cc2nnc(SCC(=O)NC3=NCCS3)n2C)c1,cell number change,,-3.95%
COc1ccc(S(=O)(=O)N2CCCC2)cc1NC(=O)c1ccccc1F,cell number change,,6.41%
same,AC50,[2],"7.31 µM [rising, single point]"
Cc1cc(N/N=C/c2ccc(Cl)cc2)nc(NCc2ccccc2)n1,cell number change,,-71.5%
same,AC50,[2],"16.4 µM [falling, partial curve, poor fit]"
same,AC50,[1],"9.2 µM [falling, partial curve, poor fit]"
S=C(Nc1ccc2snnc2c1)N1CCN(c2ccccn2)CC1,cell number change,,91%
same,AC50,[2],"0.366 µM [rising, full curve]"
same,AC50,[1],"0.461 µM [rising, full curve]"
O=C(Nc1ccccc1)c1ccc(NCC2CCCO2)c([N+](=O)[O-])c1 (configuration not stated),cell number change,,1.08%
same,AC50,[1],"6.51 µM [falling, full curve]"
O=C(O)C1=C[C@H](c2ccc(F)cc2)C[C@H](OCCCCO)O1,cell number change,,0.637%
same,AC50,[1],"6.51 µM [rising, single point]"
N#CC(C(=O)NC1CCCCC1)c1nc2ccccc2nc1N1CCN(c2ccc(F)cc2)CC1 (configuration not stated),cell number change,,37.1%
same,AC50,[2],"0.206 µM [rising, full curve]"
same,AC50,[1],"0.00461 µM [rising, full curve, poor fit]"
COc1ccc(N2CCN(S(=O)(=O)c3c(C)[nH]c(C)c3C(=O)N3CCCC3)CC2)cc1,cell number change,,-15.6%
COc1ccc(O)c(/C=N/NC(=O)c2cc(=O)[nH]c3ccccc23)c1,cell number change,,5.55%
Cc1cccc(C(=O)Nc2cccnc2Cl)c1,cell number change,,16.2%
Cc1ccc(C)c(-n2c(Cc3cc(=O)[nH]c(=O)[nH]3)nnc2SC(C)C)c1,cell number change,,-13.7%
CCN(CC)C(=O)Cn1cc(C(=O)C(=O)N2CCN(Cc3ccccc3)CC2)c2ccccc21,AC50,[1],"5.8 µM [rising, single point]"
CCC(=O)C1CCCN(C(=O)c2ccc(OC3CCN(C(=O)c4cccnc4)CC3)cc2)C1 (configuration not stated),cell number change,,-29.2%
COc1cc2nc(SCC(=O)c3ccc(Br)cc3)n3nc(C)nc3c2cc1OC,cell number change,,-32.6%
same,AC50,[2],"18.4 µM [falling, single point]"
same,AC50,[1],"29.1 µM [falling, single point]"
O=C(OCCOc1ccccc1Cl)c1ccc(-n2cnnn2)cc1,cell number change,,16.9%
same,AC50,[2],"2.31 µM [rising, single point]"
O=C(N/N=C\c1ccc(Cl)cc1)C1=NOC2COC3(CCN(c4ccc([N+](=O)[O-])cc4)CC3)OCC12 (configuration not stated),AC50,[1],"20.6 µM [falling, partial curve, poor fit]"
CNC(=O)c1cccc(NC(=O)C(C)c2ccc3cc(OC)ccc3c2)c1 (configuration not stated),cell number change,,-18.1%
N#Cc1c(-c2ccccc2)nc(-c2ccccc2)[nH]c1=O,cell number change,,136%
same,AC50,[2],"14.6 µM [rising, partial curve]"
CCCOc1ccc2oc(=O)c3c(c2c1)CCCN3C(=O)CN1CCCC(C(=O)OCC)C1 (configuration not stated),cell number change,,-25.8%
same,AC50,[1],"4.61 µM [falling, partial curve, poor fit]"
C#CCOCCOCCOCCNc1nc(N2CCN(C(=O)CCCCCCCCCCNC(=O)[C@H](CCCCN)n3cc(CCO)nn3)CC2)nc(N2CCN(C(=O)CCCCCCCCCCNC(=O)[C@H](CCCCN)n3cc(CCO)nn3)CC2)n1,cell number change,,-7.13%
same,AC50,[2],"0.103 µM [falling, full curve, poor fit]"
same,AC50,[1],"0.092 µM [falling, full curve, poor fit]"
COc1ccc(CNC(=O)CN(CC2CCCO2)C(=O)CNS(=O)(=O)c2ccc(C)cc2)cc1 (configuration not stated),cell number change,,34%
same,AC50,[2],"0.58 µM [rising, full curve, poor fit]"
O=C(N/N=C/c1cccc2cccnc12)c1ccccc1O,cell number change,,-22.1%
same,AC50,[1],"0.731 µM [falling, full curve]"
COC(=O)CN1C(=O)C(C)(C)Oc2ccc(C(=O)NC3CCCC3)cc21,cell number change,,-2.7%
same,AC50,[1],"29.1 µM [rising, single point]"
COC(=O)Oc1ccc(/C=N/NC(=O)CSCc2ccccc2Br)cc1OC,cell number change,,14.1%
same,AC50,[1],"3.26 µM [rising, partial curve]"
O=C(O)C1C2CCC(C2)C1C(=O)NCCc1ccc(F)cc1 (configuration not stated),cell number change,,3.97%
same,AC50,[1],"3.66 µM [rising, full curve]"
CCCCC(=O)Nc1ccc(NC(=S)NC(=O)CC)cc1OC,cell number change,,17.2%
same,AC50,[1],"29.1 µM [rising, single point]"
Cc1csc(SCC(=O)Nc2nc(-c3ccccc3)cs2)n1,AC50,[2],"0.13 µM [rising, full curve, poor fit]"
COc1ccc(CC2(C)OC(c3ccc(Cl)cc3)=NN2C(C)=O)cc1 (configuration not stated),cell number change,,-4.03%
COc1cccc(CN2C(=O)c3ccccc3C2C(=O)NCC2CCCO2)c1 (configuration not stated),cell number change,,77.5%
same,AC50,[2],"18.4 µM [rising, partial curve]"
same,AC50,[1],"29.1 µM [rising, single point]"
O=C(COC(=O)c1cccc(S(=O)(=O)N2CCCCC2)c1)NC1CCCCC1,cell number change,,-14.4%
same,AC50,[1],"0.92 µM [falling, full curve]"
COc1ccc(CC(=O)OCC(=O)c2ccc[nH]2)cc1,cell number change,,-14.8%
same,AC50,[1],"6.51 µM [rising, single point]"
O=C(CCCn1c(=O)[nH]c2ccsc2c1=O)N1CCCCC1,AC50,[1],"18.4 µM [falling, partial curve]"
Cc1ccc(C(=O)CCC(=O)Nc2ccc(Cl)c(S(=O)(=O)Nc3cccc(Cl)c3)c2)cc1,cell number change,,14.3%
CCC1CCCCN1S(=O)(=O)c1ccc(NC(=O)c2ccncc2)cc1 (configuration not stated),cell number change,,-43.4%
same,AC50,[2],"4.61 µM [falling, single point]"
CC(C)Oc1ccc(/C(O)=C2/C(=O)C(=O)N(CCN(C)C)C2c2ccco2)cc1 (configuration not stated),cell number change,,-16.4%
same,AC50,[1],"3.66 µM [falling, partial curve]"
Cc1ccc(S(=O)(=O)N2CCC(C(=O)NC3CCCCC3C)CC2)cc1 (configuration not stated),cell number change,,-4.7%
CCc1ccc(Nc2ccc(S(=O)(=O)N3CCOCC3)cc2[N+](=O)[O-])cc1,cell number change,,-40.1%
same,AC50,[2],"29.1 µM [falling, single point]"
same,AC50,[1],"18.4 µM [falling, single point]"
O=C(NCCn1cccn1)c1ccc(OC2CCN(C(=O)C3CC3)CC2)cc1,cell number change,,8%
same,AC50,[1],"6.51 µM [falling, single point]"
COc1ccc(OC)c(NC(=O)c2ccc(N3C(=O)C4CC=C(C)CC4C3=O)cc2)c1 (configuration not stated),cell number change,,6.31%
same,AC50,[1],"29.1 µM [rising, single point]"
Cc1c(NC(=O)c2cc(-c3ccc(O)cc3)on2)c(=O)n(-c2ccccc2)n1C,cell number change,,-1.28%
CCn1c(=O)c(C(=O)NCCNCCO)c(O)c2ccccc21,cell number change,,-3.07%
same,AC50,[1],"2.31 µM [rising, partial curve]"
COc1ccc(C(=O)OCC(=O)NC(C)(C)C)cc1[N+](=O)[O-],cell number change,,9.56%
O=C(COC(=O)/C=C/c1ccc(C(F)(F)F)cc1)NC(=O)NCc1ccco1,cell number change,,-43.8%
same,AC50,[2],"29.1 µM [falling, single point]"
same,AC50,[1],"3.66 µM [rising, partial curve, poor fit]"
CC1(C)Cc2ccccc2C(=NC(Cc2c[nH]c3ccccc23)C(=O)O)N1 (configuration not stated),cell number change,,2.89%
Cc1ccc(S(=O)(=O)N(C)C)cc1NC(=O)c1ccc(OC(F)(F)F)cc1,cell number change,,-14.1%
same,AC50,[2],"6.51 µM [rising, single point]"
same,AC50,[1],"4.11 µM [falling, full curve, poor fit]"
C=CCn1c(SCc2nc3cc(C(=O)OC)ccc3c(=O)[nH]2)nc2sc(CC)cc2c1=O,cell number change,,20.8%
same,AC50,[1],"3.66 µM [rising, partial curve, poor fit]"
COCCn1c(-c2ccsc2)nc2c1c(=O)[nH]c(=O)n2CC(C)C,cell number change,,83.9%
same,AC50,[2],"8.2 µM [rising, partial curve]"
CCCCn1c(N)c(N(Cc2ccccc2)C(=O)COc2ccccc2F)c(=O)[nH]c1=O,cell number change,,10%

# In another format: results already given.
compound | measurement | setting | value
COc1cc2nc(SCC(=O)c3ccc(Br)cc3)n3nc(C)nc3c2cc1OC | AC50 | [1] | 29.1 µM [falling, single point]
O=C(OCCOc1ccccc1Cl)c1ccc(-n2cnnn2)cc1 | cell number change |  | 16.9%
same | AC50 | [2] | 2.31 µM [rising, single point]
